Source: PubChem BioAssay AID652243 (Drosophila RNAi Screening Center, 2013)
In all, the deposit lists about 24,000 reagents; this is a random part of those that have a named target and a result. Of all reagents, 246 (1%) were called active. 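Plates not normalised; calls are printed but the firefly/Renilla ratio behind them is not deposited; fold cut for lowering reported inconsistently.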 Raw values vary from plate to plate and are shown uncorrected. A plus sign joins genes that one reagent is predicted to hit. Not given: the amount of reagent.

Assay: 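Fly regulators of androgen-dependent reporter output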 (primary screen)
Cell system: Drosophila S2R+ cells
Reagents: long dsRNA against Drosophila genes
Timing: 72 h (48 h, then 24 h hormone)
Challenge: synthetic androgen R1881 at 10 nM for 24 h
Measurement: 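Firefly light from an androgen-responsive reporter and Renilla control light per well, raw and unnormalised, for each of two replicates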
Direction: firefly reporter light: higher = more light from androgen-responsive reporter; Renilla control light: higher = more constitutive control signal (cell number, transfection)
Hit rule: 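Across duplicate plates, a knock-down whose log firefly/Renilla ratio shifted a set fold down or up from the GFP/LacZ control mean was a hit; the downward cut appears as both 1.5 and 3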
Calls: active = hit: reporter lowered or raised; inactive = no hit

no.	Gene	DRSC id	firefly reporter light, replicate 1	firefly reporter light, replicate 2	Renilla control light, replicate 1	Renilla control light, replicate 2	Call
1	Kdm5	DRSC03133	4.38e5	5.19e5	1.06e6	1.12e6	inactive
2	Kdm5	DRSC29570	2.59e5	2.80e5	9.89e5	9.89e5	inactive
3	Reepl1	DRSC19418	3.29e5	2.84e5	3.94e6	2.98e6	inactive
4	Reepl1	DRSC26698	2.66e5	2.77e5	5.69e5	5.81e5	inactive
5	CG30037	DRSC07305	2.33e5	2.09e5	1.03e6	1.09e6	inactive
6	Gr43a	DRSC06658	4.28e5	3.31e5	1.74e6	1.67e6	inactive
7	CG3225	DRSC00578	7.58e5	1.04e6	2.04e6	2.07e6	inactive
8	CG3225	DRSC30078	9.67e5	1.17e6	1.22e6	1.05e6	inactive
9	CG6000	DRSC15938	1.36e5	1.93e5	2.05e6	2.62e6	inactive
10	faf	DRSC16942	1.92e5	1.28e5	2.86e6	2.87e6	inactive
11	CG8051	DRSC20077	2.04e5	1.67e5	6.61e5	5.32e5	inactive
12	CG8051	DRSC26855	6.37e5	4.55e5	8.64e5	5.50e5	inactive
13	hid	DRSC11316	1.91e5	2.04e5	1.55e6	2.04e6	inactive
14	hid	DRSC25461	6.77e5	6.28e5	1.21e6	7.57e5	inactive
15	PGAP1	DRSC18286	90395	83707	6.00e5	4.39e5	inactive
16	PGAP1	DRSC28989	4.52e5	4.83e5	1.57e6	1.13e6	inactive
17	CG33299	DRSC01085	1.74e5	1.74e5	5.74e5	6.23e5	inactive
18	Sema2a	DRSC07551	5.33e5	6.98e5	1.90e6	2.06e6	inactive
19	CG10177	DRSC14201	1.60e5	1.64e5	2.39e6	2.28e6	inactive
20	CG10177	DRSC27888	6.76e5	4.82e5	2.58e6	1.72e6	inactive
21	CG32212 + hpRNA:CR33940	DRSC09618	2.87e5	1.34e5	7.36e5	4.77e5	inactive
22	CG12147	DRSC12192	1.58e5	1.35e5	2.71e6	2.52e6	inactive
23	CG12147	DRSC30029	3.88e5	3.80e5	7.71e5	1.06e6	inactive
24	CG13202	DRSC06326	4.47e5	2.52e5	2.28e6	2.03e6	inactive
25	CG33775	DRSC38873	8.32e5	7.73e5	2.07e6	1.31e6	inactive
26	Fcp3C	DRSC18665	2.65e5	2.83e5	3.19e6	2.91e6	inactive
27	CG3597	DRSC00617	1.21e5	51335	8.40e5	6.17e5	inactive
28	CG3597	DRSC24376	5.71e5	7.81e5	1.06e6	1.17e6	inactive
29	CG9717	DRSC16543	1.15e5	1.67e5	1.97e6	2.43e6	inactive
30	CG34166	DRSC02482	5.96e5	5.28e5	1.95e6	1.66e6	inactive
31	CG34166	DRSC27934	6.33e5	4.74e5	1.59e6	1.27e6	inactive
32	CG34166	DRSC39101	4.57e5	4.32e5	1.32e6	1.11e6	inactive
33	CG40204 (retired record)	DRSC37873	1.01e6	8.32e5	1.65e6	1.55e6	inactive
34	Calr	DRSC16614	1.60e5	1.14e5	2.71e6	2.54e6	inactive
35	Calr	DRSC29891	4.07e5	2.34e5	1.00e6	7.27e5	inactive
36	Cpr62Ba	DRSC08403	1.17e5	72978	1.09e6	8.72e5	inactive
37	CG32248	DRSC08102	3.12e5	3.32e5	3.18e5	3.30e5	inactive
38	CG32248	DRSC25738	7.15e5	7.73e5	6.23e5	6.49e5	inactive
39	CG4669	DRSC10440	1.35e6	1.06e6	7.88e5	8.59e5	inactive
40	CG1239	DRSC12204	64843	51189	4.35e5	4.43e5	inactive
41	CG1239	DRSC27944	6.70e5	4.04e5	3.00e6	1.41e6	inactive
42	l(3)mbt	DRSC16983	40236	63414	5.21e5	5.21e5	inactive
43	l(3)mbt	DRSC26103	4.27e5	4.55e5	1.09e6	8.73e5	inactive
44	CG10232	DRSC14218	1.73e5	1.90e5	1.96e6	1.60e6	inactive
45	CG40006	DRSC03787	1.86e5	2.67e5	3.69e5	4.35e5	inactive
46	CG40006	DRSC03809	1.84e5	1.49e5	5.08e5	5.79e5	inactive
47	CG40006	DRSC03814	2.06e5	2.42e5	5.46e5	7.86e5	inactive
48	CG40006	DRSC03817	1.80e5	2.43e5	7.13e5	7.43e5	inactive
49	CG13031	DRSC09911	1.92e5	2.58e5	2.37e6	2.15e6	inactive
50	Cyp6a22	DRSC07382	1.04e6	9.91e5	2.27e6	2.03e6	inactive
51	Cyp6a22	DRSC24011	3.73e5	3.18e5	4.91e5	4.28e5	inactive
52	scpr-A + scpr-C + scpr-B	DRSC15715	1.68e5	1.54e5	2.49e6	1.30e6	inactive
53	Arf4	DRSC17195	1.95e5	2.47e5	3.62e6	2.93e6	inactive
54	Arf4	DRSC29296	4.88e5	4.20e5	1.30e6	9.83e5	inactive
55	CG41378	DRSC38719	9.68e5	8.26e5	1.84e6	1.92e6	inactive
56	CG33170	DRSC22366	8.71e5	8.82e5	1.22e6	1.33e6	inactive
57	fd96Ca	DRSC16946	90741	1.73e5	1.77e6	2.05e6	inactive
58	fd96Ca	DRSC23974	4.77e5	4.25e5	6.40e5	5.51e5	inactive

Just “Renilla control light, replicate 1” (5 entries from above):
hid [DRSC11316] = 1.55e6
hid [DRSC25461] = 1.21e6
PGAP1 [DRSC18286] = 6.00e5
PGAP1 [DRSC28989] = 1.57e6
CG33299 [DRSC01085] = 5.74e5
